Measurements as given in the supplement of paper PMC12823440, “Inhibitors supercharge kinase turnover through native proteolytic circuits” (Nature, 2025).
Where a name gives a salt, the structure may show the parent alone. The list shows a part of the results. Hit calls seldom repeat between salt and free forms of one compound.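 In K562 cells expressing nanoluciferase-fused kinases, luminescence was recorded at 4 h intervals between 2 and 18 h, normalized as percent of control with DMSO at 100% and a positive control at 0%. A significant (2 sigma) signal drop marks a time point as decreased. The authors' rule for a hit is not shown and takes in more than the number of time points.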

Sequences of proteins named here, by UniProt entry; tags and fusion partners are left off. A change or cut given only in a name is not applied to a line headed by its entry.
UniProt Q8IWU2: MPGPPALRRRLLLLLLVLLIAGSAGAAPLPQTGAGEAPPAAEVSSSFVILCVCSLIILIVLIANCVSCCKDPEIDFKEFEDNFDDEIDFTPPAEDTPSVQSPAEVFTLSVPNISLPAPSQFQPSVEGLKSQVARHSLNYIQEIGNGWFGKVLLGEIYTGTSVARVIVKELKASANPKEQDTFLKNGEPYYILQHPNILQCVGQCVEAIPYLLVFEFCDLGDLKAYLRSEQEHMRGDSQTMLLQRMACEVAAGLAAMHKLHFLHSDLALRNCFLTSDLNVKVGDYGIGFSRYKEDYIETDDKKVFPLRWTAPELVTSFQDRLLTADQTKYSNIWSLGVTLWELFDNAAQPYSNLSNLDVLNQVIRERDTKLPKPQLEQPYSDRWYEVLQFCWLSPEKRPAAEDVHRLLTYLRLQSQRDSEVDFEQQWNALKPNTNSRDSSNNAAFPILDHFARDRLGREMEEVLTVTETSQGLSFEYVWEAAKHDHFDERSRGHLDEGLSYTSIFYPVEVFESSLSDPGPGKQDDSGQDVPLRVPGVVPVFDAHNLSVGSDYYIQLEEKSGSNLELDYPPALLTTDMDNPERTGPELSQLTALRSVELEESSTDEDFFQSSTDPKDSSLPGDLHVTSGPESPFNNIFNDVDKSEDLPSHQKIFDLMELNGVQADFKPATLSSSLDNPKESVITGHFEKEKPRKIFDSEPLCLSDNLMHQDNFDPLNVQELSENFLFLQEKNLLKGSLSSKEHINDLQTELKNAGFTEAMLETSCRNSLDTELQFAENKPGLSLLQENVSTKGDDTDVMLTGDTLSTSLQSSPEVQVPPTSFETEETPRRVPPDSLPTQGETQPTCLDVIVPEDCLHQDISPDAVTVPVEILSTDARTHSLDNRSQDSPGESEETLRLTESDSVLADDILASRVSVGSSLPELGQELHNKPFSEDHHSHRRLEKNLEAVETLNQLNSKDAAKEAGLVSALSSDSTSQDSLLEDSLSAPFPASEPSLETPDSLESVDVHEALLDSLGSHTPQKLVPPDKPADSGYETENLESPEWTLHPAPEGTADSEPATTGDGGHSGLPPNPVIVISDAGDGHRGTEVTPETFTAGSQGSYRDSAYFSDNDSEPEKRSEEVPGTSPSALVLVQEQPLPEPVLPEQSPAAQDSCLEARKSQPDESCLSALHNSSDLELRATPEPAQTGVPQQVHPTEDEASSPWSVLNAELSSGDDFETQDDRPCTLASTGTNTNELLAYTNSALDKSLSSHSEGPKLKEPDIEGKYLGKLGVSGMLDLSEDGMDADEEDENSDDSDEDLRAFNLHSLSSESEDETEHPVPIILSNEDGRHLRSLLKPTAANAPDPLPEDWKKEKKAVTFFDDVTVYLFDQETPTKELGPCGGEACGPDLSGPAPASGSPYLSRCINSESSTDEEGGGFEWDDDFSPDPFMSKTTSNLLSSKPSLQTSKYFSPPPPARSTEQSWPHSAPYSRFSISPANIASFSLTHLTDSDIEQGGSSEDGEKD
UniProt P28482, whole entry: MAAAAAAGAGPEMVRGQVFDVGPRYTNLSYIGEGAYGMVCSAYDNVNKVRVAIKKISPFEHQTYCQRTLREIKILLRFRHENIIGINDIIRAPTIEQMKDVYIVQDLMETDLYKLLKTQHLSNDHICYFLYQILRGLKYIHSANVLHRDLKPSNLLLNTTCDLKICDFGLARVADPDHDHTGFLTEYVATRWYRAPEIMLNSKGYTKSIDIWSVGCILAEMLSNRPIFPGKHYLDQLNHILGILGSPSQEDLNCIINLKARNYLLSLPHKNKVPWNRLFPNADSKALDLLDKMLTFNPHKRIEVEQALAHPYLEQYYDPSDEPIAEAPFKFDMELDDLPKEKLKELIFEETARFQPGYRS
UniProt P49137, whole entry, looked up: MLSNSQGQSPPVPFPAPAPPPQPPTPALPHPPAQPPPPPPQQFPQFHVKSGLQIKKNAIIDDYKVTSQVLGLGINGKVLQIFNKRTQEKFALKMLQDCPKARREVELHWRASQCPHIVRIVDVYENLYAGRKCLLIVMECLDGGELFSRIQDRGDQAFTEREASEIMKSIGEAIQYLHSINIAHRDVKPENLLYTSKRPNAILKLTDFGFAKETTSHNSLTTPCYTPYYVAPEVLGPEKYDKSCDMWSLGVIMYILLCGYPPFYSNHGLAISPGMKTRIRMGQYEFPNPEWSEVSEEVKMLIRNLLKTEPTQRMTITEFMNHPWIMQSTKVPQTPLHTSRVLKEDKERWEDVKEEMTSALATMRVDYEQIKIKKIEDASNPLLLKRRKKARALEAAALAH
UniProt Q9BUB5: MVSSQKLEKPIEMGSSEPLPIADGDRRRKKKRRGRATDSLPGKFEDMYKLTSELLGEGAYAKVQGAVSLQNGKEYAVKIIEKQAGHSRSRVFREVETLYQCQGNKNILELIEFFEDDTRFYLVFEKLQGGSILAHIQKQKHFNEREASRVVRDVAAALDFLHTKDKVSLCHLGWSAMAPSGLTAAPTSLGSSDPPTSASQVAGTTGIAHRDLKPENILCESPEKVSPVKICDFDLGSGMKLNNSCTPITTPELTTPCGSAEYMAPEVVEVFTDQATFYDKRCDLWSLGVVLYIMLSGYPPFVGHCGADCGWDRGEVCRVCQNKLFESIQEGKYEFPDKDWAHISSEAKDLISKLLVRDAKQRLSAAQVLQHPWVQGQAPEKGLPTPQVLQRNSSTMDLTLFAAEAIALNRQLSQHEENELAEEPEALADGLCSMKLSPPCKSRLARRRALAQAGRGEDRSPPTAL
UniProt O96013: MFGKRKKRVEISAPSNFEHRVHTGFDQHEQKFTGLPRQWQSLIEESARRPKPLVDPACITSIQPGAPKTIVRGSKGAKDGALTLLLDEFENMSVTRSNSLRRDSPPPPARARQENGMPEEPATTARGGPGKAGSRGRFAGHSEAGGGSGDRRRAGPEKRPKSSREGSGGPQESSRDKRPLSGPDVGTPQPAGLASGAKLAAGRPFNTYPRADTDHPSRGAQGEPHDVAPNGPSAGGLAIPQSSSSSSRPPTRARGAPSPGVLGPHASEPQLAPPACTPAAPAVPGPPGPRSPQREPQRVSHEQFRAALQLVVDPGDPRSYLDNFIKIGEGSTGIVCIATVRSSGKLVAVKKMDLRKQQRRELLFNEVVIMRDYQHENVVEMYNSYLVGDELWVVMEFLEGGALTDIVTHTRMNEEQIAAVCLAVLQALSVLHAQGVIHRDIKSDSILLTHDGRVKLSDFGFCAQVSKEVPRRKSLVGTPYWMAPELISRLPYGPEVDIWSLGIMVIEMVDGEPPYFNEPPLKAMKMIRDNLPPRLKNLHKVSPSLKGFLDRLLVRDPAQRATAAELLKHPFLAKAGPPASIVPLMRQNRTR
UniProt Q96KB5: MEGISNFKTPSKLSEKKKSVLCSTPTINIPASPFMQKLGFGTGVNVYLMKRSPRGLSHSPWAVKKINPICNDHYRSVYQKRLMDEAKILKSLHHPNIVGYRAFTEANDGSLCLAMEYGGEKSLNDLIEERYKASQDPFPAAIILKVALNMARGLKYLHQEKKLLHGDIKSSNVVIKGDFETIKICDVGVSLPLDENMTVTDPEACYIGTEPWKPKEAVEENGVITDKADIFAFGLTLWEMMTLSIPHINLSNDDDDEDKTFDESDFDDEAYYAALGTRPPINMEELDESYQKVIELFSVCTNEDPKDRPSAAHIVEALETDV
UniProt P42356, whole entry, looked up: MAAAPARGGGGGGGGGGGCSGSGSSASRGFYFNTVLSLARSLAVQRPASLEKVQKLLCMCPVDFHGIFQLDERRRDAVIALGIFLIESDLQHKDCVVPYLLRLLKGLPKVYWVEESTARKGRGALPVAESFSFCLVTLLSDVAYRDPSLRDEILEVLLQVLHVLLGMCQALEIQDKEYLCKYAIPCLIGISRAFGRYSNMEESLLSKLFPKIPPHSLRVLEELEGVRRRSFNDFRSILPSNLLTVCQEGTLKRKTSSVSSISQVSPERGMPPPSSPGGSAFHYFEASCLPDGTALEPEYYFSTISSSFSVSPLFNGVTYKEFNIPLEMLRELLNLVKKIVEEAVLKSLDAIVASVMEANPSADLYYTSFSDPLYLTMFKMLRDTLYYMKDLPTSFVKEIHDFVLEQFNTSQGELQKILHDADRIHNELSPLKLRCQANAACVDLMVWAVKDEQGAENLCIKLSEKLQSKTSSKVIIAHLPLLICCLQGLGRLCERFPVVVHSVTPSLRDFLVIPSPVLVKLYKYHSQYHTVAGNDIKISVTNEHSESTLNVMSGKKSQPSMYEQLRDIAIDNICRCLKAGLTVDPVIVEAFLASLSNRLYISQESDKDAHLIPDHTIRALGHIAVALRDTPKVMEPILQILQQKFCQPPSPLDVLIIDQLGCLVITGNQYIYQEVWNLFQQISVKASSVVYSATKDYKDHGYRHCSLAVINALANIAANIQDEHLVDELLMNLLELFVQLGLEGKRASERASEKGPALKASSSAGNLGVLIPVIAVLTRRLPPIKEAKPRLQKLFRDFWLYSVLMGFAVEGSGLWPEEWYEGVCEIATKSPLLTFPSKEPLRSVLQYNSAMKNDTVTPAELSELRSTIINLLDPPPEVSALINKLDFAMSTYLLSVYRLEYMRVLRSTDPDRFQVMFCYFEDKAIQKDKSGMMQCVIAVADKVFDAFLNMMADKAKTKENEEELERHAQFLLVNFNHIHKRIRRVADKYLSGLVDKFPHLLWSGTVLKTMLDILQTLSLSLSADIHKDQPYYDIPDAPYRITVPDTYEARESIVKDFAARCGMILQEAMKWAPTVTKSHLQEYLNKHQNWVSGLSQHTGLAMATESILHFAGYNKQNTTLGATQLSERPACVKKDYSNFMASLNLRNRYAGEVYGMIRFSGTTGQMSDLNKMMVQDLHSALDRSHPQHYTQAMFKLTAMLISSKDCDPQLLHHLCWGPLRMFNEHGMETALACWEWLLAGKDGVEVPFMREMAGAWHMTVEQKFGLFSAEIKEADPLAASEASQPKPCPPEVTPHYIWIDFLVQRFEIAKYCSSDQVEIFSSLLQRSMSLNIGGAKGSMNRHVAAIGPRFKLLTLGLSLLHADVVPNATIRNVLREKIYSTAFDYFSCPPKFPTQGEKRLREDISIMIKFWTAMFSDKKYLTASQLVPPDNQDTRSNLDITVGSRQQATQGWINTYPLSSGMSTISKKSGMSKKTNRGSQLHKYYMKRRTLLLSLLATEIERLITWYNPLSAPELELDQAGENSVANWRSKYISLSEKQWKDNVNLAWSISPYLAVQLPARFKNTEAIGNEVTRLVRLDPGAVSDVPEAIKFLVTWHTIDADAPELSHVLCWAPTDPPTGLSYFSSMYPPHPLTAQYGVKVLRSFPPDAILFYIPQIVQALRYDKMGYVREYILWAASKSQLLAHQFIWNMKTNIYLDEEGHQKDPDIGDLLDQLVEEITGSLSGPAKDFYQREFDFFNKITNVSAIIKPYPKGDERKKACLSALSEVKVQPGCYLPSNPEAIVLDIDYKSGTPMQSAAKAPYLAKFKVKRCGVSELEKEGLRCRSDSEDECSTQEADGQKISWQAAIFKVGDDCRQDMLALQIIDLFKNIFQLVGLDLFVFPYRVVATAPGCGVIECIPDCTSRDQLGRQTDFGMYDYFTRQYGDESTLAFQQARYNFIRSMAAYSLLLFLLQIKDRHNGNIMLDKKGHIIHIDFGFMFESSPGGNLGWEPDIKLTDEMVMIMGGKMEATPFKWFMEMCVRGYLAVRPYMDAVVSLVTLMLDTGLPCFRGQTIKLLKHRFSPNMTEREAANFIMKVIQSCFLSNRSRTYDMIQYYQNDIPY
UniProt Q13131: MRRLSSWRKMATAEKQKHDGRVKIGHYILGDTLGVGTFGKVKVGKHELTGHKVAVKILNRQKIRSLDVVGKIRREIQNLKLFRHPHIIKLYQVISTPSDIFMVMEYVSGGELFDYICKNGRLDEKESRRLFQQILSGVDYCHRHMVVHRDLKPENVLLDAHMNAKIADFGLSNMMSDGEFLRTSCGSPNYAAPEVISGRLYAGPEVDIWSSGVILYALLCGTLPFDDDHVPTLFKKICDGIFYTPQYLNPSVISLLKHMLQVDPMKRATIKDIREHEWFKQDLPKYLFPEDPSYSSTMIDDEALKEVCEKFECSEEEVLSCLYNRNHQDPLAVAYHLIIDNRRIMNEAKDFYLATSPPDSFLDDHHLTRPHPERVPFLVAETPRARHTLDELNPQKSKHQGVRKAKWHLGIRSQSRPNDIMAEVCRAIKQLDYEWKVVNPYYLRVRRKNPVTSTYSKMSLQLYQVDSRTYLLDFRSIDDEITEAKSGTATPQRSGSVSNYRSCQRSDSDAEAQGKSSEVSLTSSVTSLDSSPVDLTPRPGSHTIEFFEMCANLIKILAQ

What was measured:
Assay in all cases: number of time points (of 5) at which kinase-Nluc abundance scored as decreased, DMSO-normalised (count); higher = more persistent destabilization
Details in all cases: K562; 2-18 h
LMTK2 = LMTK2 (UniProt Q8IWU2)
LYN = LYN (UniProt P07948)
MAP2K1 = MAP2K1 (UniProt Q02750)
MAP2K2 = MAP2K2 (UniProt P36507)
MAP4K2 = MAP4K2 (UniProt Q12851)
MAPK1 = MAPK1 (UniProt P28482)
MAPK4 = MAPK4 (UniProt P31152)
MAPKAPK2 = MAPKAPK2 (UniProt P49137)
MKNK1 = MKNK1 (UniProt Q9BUB5)
NTRK2 = NTRK2 (UniProt Q16620)
NTRK3 = NTRK3 (UniProt Q16288)
PAK4 = PAK4 (UniProt O96013)
PBK = PBK (UniProt Q96KB5)
PDGFRB = PDGFRB (UniProt P09619)
PDK1 = PDK1 (UniProt Q15118)
PDPK1 = PDPK1 (UniProt O15530)
PIK4CA = PIK4CA (UniProt P42356)
PIK4CB = PIK4CB (UniProt Q9UBF8)
PLK1 = PLK1 (UniProt P53350)
PRKAA1 = PRKAA1 (UniProt Q13131)

| Structure (SMILES) | number of time points (LMTK2) | number of time points (LYN) | number of time points (MAP2K1) | number of time points (MAP2K2) | number of time points (MAP4K2) | number of time points (MAPK1) | number of time points (MAPK4) | number of time points (MAPKAPK2) | number of time points (MKNK1) | number of time points (NTRK2) | number of time points (NTRK3) | number of time points (PAK4) | number of time points (PBK) | number of time points (PDGFRB) | number of time points (PDK1) | number of time points (PDPK1) | number of time points (PIK4CA) | number of time points (PIK4CB) | number of time points (PLK1) | number of time points (PRKAA1) |
| --- | --- | --- | --- | --- | --- | --- | --- | --- | --- | --- | --- | --- | --- | --- | --- | --- | --- | --- | --- | --- |
| CCc1c[nH]c2ncnc(N3CC[C@](N)(CNC(=O)c4ccc(F)cc4F)C3)c12 (10 µM) | 0 | 0 | 0 | 0 | 0 | 0 | 0 | 0 | 0 | 0 | 0 | 0 | 0 | 0 | 0 | 0 | 0 | 0 | 0 | 0 |
| CN(C)c1ccc(-c2nc3ncc(Cl)c(N4CCN(CC(=O)Nc5nccs5)CC4)c3[nH]2)cc1 (2 µM) | 0 | 0 | 0 | 0 | 0 | 0 | 0 | 0 | 0 | 0 | 0 | 0 | 0 | 0 | 0 | 0 | 0 | 0 | 0 | 0 |
| N#Cc1ccc(-c2cnc3ccc(-c4ccc(C(=O)N5CCOCC5)cc4)cn23)cc1 (10 µM) | 0 | 0 | 0 | 0 | 0 | 0 | 0 | 0 | 0 | 0 | 0 | 0 | 0 | 0 | 0 | 0 | 0 | 0 | 0 | 0 |
| CC(C)n1ncnc1-c1cn2c(n1)-c1ccc(O[C@@H](C)C(N)=O)cc1OCC2 (10 µM) | 0 | 0 | 0 | 0 | 0 | 0 | 0 | 0 | 0 | 0 | 0 | 0 | 0 | 0 | 0 | 0 | 0 | 0 | 0 | 0 |
| COc1ccc(-c2cc(=O)c3c(OC)cc(OC)c(OC)c3o2)cc1 [6-Demethoxytangeretin] (10 µM) | 0 | 0 | 0 | 0 | 0 | 0 | 0 | 0 | 0 | 0 | 0 | 0 | 0 | 0 | 0 | 0 | 0 | 0 | 0 | 0 |
| CCCCCc1ccc(/C=C/[C@H](O)[C@@H](CO)NC)cc1 [SK1-I (hydrochloride)] (10 µM) | 0 | 0 | 0 | 0 | 0 | 0 | 0 | 0 | 0 | 0 | 0 | 0 | 0 | 0 | 0 | 0 | 0 | 0 | 0 | 0 |
| COc1c(O)cc2oc(-c3ccc(O)cc3)cc(=O)c2c1O [Hispidulin] (10 µM) | 0 | 0 | 0 | 0 | 0 | 0 | 0 | 0 | 0 | 0 | 0 | 0 | 0 | 0 | 0 | 0 | 0 | 0 | 0 | 0 |
| Cc1cccc(/C=N/Nc2cc(N3CCOCC3)n3nc(-c4ccncc4)cc3n2)c1 (10 µM) | 0 | 0 | 0 | 0 | 0 | 0 | 0 | 0 | 0 | 0 | 0 | 0 | 0 | 0 | 0 | 0 | 0 | 0 | 0 | 0 |
| O=C1Nc2ccc(I)cc2/C1=C/c1cc(Br)c(O)c(Br)c1 (10 µM) | 0 | 1 | 0 | 3 | 0 | 1 | 1 | 0 | 0 | 0 | 0 | 0 | 0 | 4 | 0 | 0 | 0 | 1 | 0 | 0 |
| NC(=O)c1ccc(N(C(N)=O)c2c(F)cccc2F)nc1-c1ccc(F)cc1F (10 µM) | 0 | 0 | 0 | 0 | 0 | 0 | 0 | 0 | 0 | 0 | 0 | 0 | 0 | 0 | 0 | 0 | 0 | 0 | 0 | 0 |
| O=C1Nc2ccc(CN3C(=O)CSC3=O)cc2/C1=C/c1cc(CN2CCOCC2)c[nH]1 (10 µM) | 0 | 0 | 0 | 0 | 0 | 0 | 0 | 0 | 0 | 0 | 0 | 0 | 0 | 0 | 0 | 0 | 0 | 0 | 0 | 0 |
| Cc1cc(CSc2ccccc2C(=O)NCCNc2ccc(C(F)(F)F)cc2[N+](=O)[O-])on1 (10 µM) | 0 | 0 | 0 | 0 | 0 | 0 | 0 | 0 | 0 | 0 | 0 | 0 | 0 | 0 | 0 | 0 | 0 | 0 | 0 | 0 |
| O=C(Nc1cccnc1)c1cc(-c2ccnc(F)c2)ccc1OCc1ccccc1 (10 µM) | 0 | 0 | 0 | 0 | 0 | 0 | 0 | 0 | 0 | 0 | 0 | 0 | 0 | 0 | 0 | 0 | 0 | 0 | 0 | 0 |
| C[C@@H]1O[C@@H](Oc2cc(O)c3c(=O)c(O[C@@H]4O[C@@H](C)[C@H](O)[C@@H](O)[C@H]4O)c(-c4ccc(O)cc4)oc3c2)[C@H](O)[C@H](O)[C@H]1O [Kaempferitrin] (10 µM) | 0 | 0 | 0 | 0 | 0 | 0 | 0 | 0 | 0 | 0 | 0 | 0 | 0 | 0 | 0 | 0 | 0 | 0 | 0 | 0 |
| NCC1CCC(CNc2nc(NCc3ccccc3OC(F)(F)F)ncc2[N+](=O)[O-])CC1 (stereo not given) [PKC-theta inhibitor] (10 µM) | 1 | 0 | 0 | 0 | 0 | 0 | 0 | 0 | 2 | 3 | 4 | 0 | 0 | 3 | 0 | 2 | 3 | 1 | 0 | 0 |
| Cn1cc(-c2cc(Oc3cc(F)c(NC(=O)C4(C(=O)Nc5ccccc5)CC4)cc3F)ccn2)cn1 (2.5 µM) | 0 | 0 | 0 | 0 | 0 | 0 | 0 | 0 | 0 | 0 | 0 | 0 | 0 | 0 | 0 | 1 | 0 | 0 | 0 | 0 |
| CN1CCN(c2cc(-c3ccncc3)c(-c3ccc4ccccc4c3)nn2)CC1 (10 µM) | 0 | 0 | 0 | 0 | 0 | 0 | 0 | 0 | 0 | 0 | 0 | 0 | 0 | 0 | 0 | 0 | 0 | 0 | 0 | 0 |
| c1ccc(Cn2c(-c3ccc(OC[C@H](C4CCNCC4)n4c(-c5ccccc5)nc5ccccc54)cc3)nc3ccccc32)cc1 [Deltarasin] (2.5 µM) | 0 | 0 | 0 | 0 | 0 | 0 | 0 | 0 | 0 | 0 | 0 | 0 | 0 | 0 | 0 | 0 | 1 | 0 | 0 | 0 |
| Cc1cc(C(=O)NOCCO)c(Nc2ccc(I)cc2F)n(C)c1=O (10 µM) | 0 | 0 | 0 | 0 | 0 | 0 | 0 | 0 | 0 | 0 | 0 | 0 | 0 | 0 | 0 | 0 | 0 | 0 | 0 | 0 |
| NC[C@@](O)(c1ccc(Cl)cc1)c1ccc(-c2cn[nH]c2)cc1 (10 µM) | 0 | 0 | 0 | 0 | 0 | 0 | 0 | 0 | 0 | 0 | 0 | 0 | 0 | 0 | 0 | 0 | 0 | 0 | 0 | 0 |
| CCN1CCN(Cc2cnc(Nc3cc(-c4cc(F)c5nc(C)n(C(C)C)c5c4)c(F)cn3)nc2)CC1 (10 µM) | 3 | 0 | 0 | 0 | 0 | 0 | 0 | 0 | 0 | 0 | 0 | 0 | 0 | 0 | 0 | 0 | 0 | 0 | 0 | 0 |
| Cc1cc(C)cc(NC(N)=Nc2ccccc2C(F)(F)F)c1 (10 µM) | 0 | 0 | 0 | 0 | 0 | 0 | 0 | 0 | 0 | 0 | 0 | 0 | 0 | 0 | 0 | 0 | 0 | 0 | 0 | 0 |
| Cn1c(=O)c2c(nc(S(C)(=O)=O)n2C)n(CC#Cc2cccc(O)c2)c1=O (2.5 µM) | 2 | 0 | 0 | 0 | 0 | 0 | 0 | 0 | 0 | 0 | 0 | 0 | 0 | 0 | 0 | 0 | 0 | 0 | 0 | 0 |
| Cc1cnc(NC(=O)c2cc(Oc3cnc(C(=O)N(C)C)nc3)c3cc(C)oc3c2)cn1 (10 µM) | 0 | 0 | 0 | 0 | 0 | 0 | 0 | 0 | 0 | 0 | 0 | 0 | 0 | 0 | 0 | 0 | 0 | 0 | 0 | 0 |

3 compounds from above, ordered by formula weight, low to high.

| Structure (SMILES) | number of time points (LMTK2) | number of time points (LYN) | number of time points (MAP2K1) | number of time points (MAP2K2) | number of time points (MAP4K2) | number of time points (MAPK1) | number of time points (MAPK4) | number of time points (MAPKAPK2) | number of time points (MKNK1) | number of time points (NTRK2) | number of time points (NTRK3) | number of time points (PAK4) | number of time points (PBK) | number of time points (PDGFRB) | number of time points (PDK1) | number of time points (PDPK1) | number of time points (PIK4CA) | number of time points (PIK4CB) | number of time points (PLK1) | number of time points (PRKAA1) |
| --- | --- | --- | --- | --- | --- | --- | --- | --- | --- | --- | --- | --- | --- | --- | --- | --- | --- | --- | --- | --- |
| NC[C@@](O)(c1ccc(Cl)cc1)c1ccc(-c2cn[nH]c2)cc1 (10 µM) | 0 | 0 | 0 | 0 | 0 | 0 | 0 | 0 | 0 | 0 | 0 | 0 | 0 | 0 | 0 | 0 | 0 | 0 | 0 | 0 |
| CN1CCN(c2cc(-c3ccncc3)c(-c3ccc4ccccc4c3)nn2)CC1 (10 µM) | 0 | 0 | 0 | 0 | 0 | 0 | 0 | 0 | 0 | 0 | 0 | 0 | 0 | 0 | 0 | 0 | 0 | 0 | 0 | 0 |
| O=C1Nc2ccc(I)cc2/C1=C/c1cc(Br)c(O)c(Br)c1 (10 µM) | 0 | 1 | 0 | 3 | 0 | 1 | 1 | 0 | 0 | 0 | 0 | 0 | 0 | 4 | 0 | 0 | 0 | 1 | 0 | 0 |
